Experimental data as given in patent US20220305000A1 (Cellworks Group Inc., priority 2021, published 2022).
At least one compound was matched to its structure with a doubt left.

Tests used:
[1] = test system: MPN patients (JAK2 and non JAK2 populations); test: Efficacy of standard of care drugs on patient cohort
Source text: Efficacy comparison study of standard of care drugs in MPN Cell Lines and Patients is provided hereunder: […]

[2] = test system: patients with JAK2 aberration, Chromosome 8 / Chromosome 9 aberration; test: Analysis of Ruxolitinib non-responder cases in JAK2 aberration segment (efficacy score, chromosome 8/9 genes)

N#CC[C@H](C1CCCC1)n1cc(-c2ncnc3[nH]ccc23)cn1 [Ruxolitinib, ruxolitinib]
efficacy in JAK2 population compared to drug combination of CQ+M+S [1]: higher | Response ([2]; Gene IFNA1, Chromosome 9, Trisomy 9): Exclusion | Response ([2]; Gene IFNA2, Chromosome 9, Trisomy 9): Exclusion | Response ([2]; Gene PPP2R2A, Chromosome 8, Trisomy 8): Exclusion | Response ([2]; Gene PTPN3, Chromosome 9, Trisomy 9): Exclusion
